This is one part of the list. Many values rest on one well or one pass, so single values are uncertain.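 Pooled together, 41 HAP1 clones carry intronic fluorescent tags on 61 cancer-associated proteins, and each clone is recognized by its imaging pattern. Measurements are benchmarked against DMSO-treated control wells. dBET6, a BRD4 degrader, served as the positive control.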

This test has as its target BRD4 (intron 10 mScarlet tag, HAP1) (UniProt O60885). Description: BRD4 median nuclear fluorescence intensity change vs DMSO (log2 fold change); higher = more BRD4 protein. Conditions: 6 h.
As for `NC(=O)c1ncn([C@@H]2O[C@H](COP(=O)(O)OP(=O)(O)OP(=O)(O)O)[C@@H](O)[C@H]2O)n1` [ribavirin 5'-triphosphate] (10 µM), the “BRD4 median nuclear fluorescence intensity change (log2)” value was -0.0568. Take `CNCCCC12CCC(c3ccccc31)c1ccccc12` [maprotiline] (11.3144 µM): the “BRD4 median nuclear fluorescence intensity change (log2)” value worked out at 0.116. In the case of `CCCN[C@H]1CCc2nc(N)sc2C1` [pramipexole] (10.00012856 µM), the “BRD4 median nuclear fluorescence intensity change (log2)” value came to 0.0647. Consider `c1ccc2[nH]c(-c3cscn3)nc2c1` [thiabendazole] (10 µM), for which the “BRD4 median nuclear fluorescence intensity change (log2)” value amounted to 0.0111.

With `COc1c(OCCCN2CCOCC2)ccc2c1N=C(NC(=O)c1cnc(N)nc1)N1CCN=C21` [copanlisib] (10 µM), the “BRD4 median nuclear fluorescence intensity change (log2)” value turned out to be 0.0971. Next, `Cc1ccsc1C(=CCCN1CCC[C@@H](C(=O)O)C1)c1sccc1C` [tiagabine] (11 µM): 0.102; `CCN(CC)C(=S)S` [sodium diethyldithiocarbamate trihydrate] (10 µM): -0.00699; `CN1CCC(=C2c3ccccc3CCc3cccnc32)CC1` [azatadine] (17.993 µM): 0.143.

With `NC(=O)N[C@@H](CCC(=O)O)C(=O)O` [carglumic acid] (10 µM), the “BRD4 median nuclear fluorescence intensity change (log2)” value was -0.000272. Next, `Cc1ccc(Nc2nccc(N(C)c3ccc4c(C)n(C)nc4c3)n2)cc1S(N)(=O)=O` [pazopanib] (11.455 µM): 0.0311; `N[C@@H](CC(=O)N1CCn2c(nnc2C(F)(F)F)C1)Cc1cc(F)c(F)cc1F` [sitagliptin] (10.0003 µM): 0.0329; `COC(=O)Nc1nc2cc(C(=O)c3ccccc3)ccc2[nH]1` [mebendazole] (9.99917 µM): 0.0145.

For the origin of these results see the supplement of paper PMC11098740.
